The assay has as its target T1, SMG7-MYC (Arabidopsis thaliana) (UniProt A9QM73).
T1 sequence: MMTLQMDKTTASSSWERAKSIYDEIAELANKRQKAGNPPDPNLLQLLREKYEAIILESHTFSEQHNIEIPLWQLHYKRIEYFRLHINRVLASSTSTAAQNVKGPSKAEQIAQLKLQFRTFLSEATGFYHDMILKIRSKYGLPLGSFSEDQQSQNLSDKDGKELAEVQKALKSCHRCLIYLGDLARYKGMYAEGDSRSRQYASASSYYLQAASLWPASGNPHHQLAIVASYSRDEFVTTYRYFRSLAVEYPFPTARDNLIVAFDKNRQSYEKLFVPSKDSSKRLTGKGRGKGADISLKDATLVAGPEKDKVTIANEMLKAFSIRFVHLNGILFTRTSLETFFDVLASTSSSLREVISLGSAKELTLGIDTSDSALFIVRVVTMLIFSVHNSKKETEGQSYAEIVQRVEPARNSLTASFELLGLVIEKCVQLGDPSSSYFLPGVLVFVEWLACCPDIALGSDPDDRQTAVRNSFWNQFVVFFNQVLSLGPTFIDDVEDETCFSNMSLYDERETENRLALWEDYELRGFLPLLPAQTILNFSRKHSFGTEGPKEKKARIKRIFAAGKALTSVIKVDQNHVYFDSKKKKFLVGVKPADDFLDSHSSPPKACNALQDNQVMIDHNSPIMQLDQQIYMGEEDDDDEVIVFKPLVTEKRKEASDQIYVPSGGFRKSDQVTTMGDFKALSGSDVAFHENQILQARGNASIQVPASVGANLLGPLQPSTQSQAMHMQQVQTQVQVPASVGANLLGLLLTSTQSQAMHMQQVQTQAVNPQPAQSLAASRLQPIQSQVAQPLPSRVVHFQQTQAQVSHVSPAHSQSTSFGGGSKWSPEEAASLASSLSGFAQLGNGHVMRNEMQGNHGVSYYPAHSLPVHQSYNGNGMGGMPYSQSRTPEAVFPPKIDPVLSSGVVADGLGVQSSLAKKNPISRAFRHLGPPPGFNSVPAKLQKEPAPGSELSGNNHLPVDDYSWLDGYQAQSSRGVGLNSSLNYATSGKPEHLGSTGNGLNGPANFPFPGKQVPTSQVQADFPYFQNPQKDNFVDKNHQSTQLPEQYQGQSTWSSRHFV
In words: affinity purification with mass spectrometry; SMG7-MYC precipitated with EZview Red Anti-c-Myc Affinity Gel from extracts of leaves, stems and inflorescences of 35-day-old SMG7-MYC plants, wild type as control; 50 mM Tris-HCl pH 7.5, 150 mM NaCl, 0.1% Nonidet P-40, 10% glycerol, with phosphatase inhibitors; LC-MS/MS of gel bands.

The chains behind the UniProt entries cited, without tags or fusion partners.
UniProt P41377: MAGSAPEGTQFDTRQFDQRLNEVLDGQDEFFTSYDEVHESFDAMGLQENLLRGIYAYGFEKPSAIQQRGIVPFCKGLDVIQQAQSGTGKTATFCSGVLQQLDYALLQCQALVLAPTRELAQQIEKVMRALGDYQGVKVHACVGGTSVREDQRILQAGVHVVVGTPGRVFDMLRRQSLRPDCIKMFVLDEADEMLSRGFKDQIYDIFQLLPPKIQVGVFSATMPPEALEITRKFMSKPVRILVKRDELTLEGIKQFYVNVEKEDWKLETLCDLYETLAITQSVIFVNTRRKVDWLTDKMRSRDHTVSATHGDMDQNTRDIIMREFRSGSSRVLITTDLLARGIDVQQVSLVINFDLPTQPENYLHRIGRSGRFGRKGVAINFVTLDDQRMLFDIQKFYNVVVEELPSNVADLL
UniProt P41376: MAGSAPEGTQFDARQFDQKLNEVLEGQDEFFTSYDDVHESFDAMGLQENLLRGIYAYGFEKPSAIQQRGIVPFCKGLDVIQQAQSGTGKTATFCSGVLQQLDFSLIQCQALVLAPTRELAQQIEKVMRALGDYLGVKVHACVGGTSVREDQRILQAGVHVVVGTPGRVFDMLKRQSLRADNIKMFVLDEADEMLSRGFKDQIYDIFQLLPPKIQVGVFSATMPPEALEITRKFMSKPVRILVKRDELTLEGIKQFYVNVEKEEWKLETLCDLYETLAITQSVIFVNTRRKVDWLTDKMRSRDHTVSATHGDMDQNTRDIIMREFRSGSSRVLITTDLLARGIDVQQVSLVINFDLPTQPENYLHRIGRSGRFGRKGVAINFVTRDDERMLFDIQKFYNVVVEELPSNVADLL

Results are given in words; binding and its absence hold for the method and conditions named. In cells and extracts the contact can be indirect. A yes stands for co-enrichment or nearness to the bait. Other partners may have been found. Sequences can lack the tags named with a protein.

eIF4A2 (from UniProt P41377 1-412): the binding result was “binds”.

As for eIF4A1 (from UniProt P41376 1-412), the binding result was “binds”.

The values are drawn from paper PMC13284301.
